## Results of single-concentration screens

The values are deposited in ChEMBL (CHEMBL3988442, “University of Dundee, Small-Polar-MMV Screening Library” (2021)).

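Assay of Toxoplasma gondii numbers, read through their beta-galactosidase reporter with a colour substrate. Concentration: 10 µM. Higher reads as fewer parasites (inferred from which compounds were picked for retests). About 67,000 compounds were tested under these conditions; 0.38% (about 260) showed 50% or more at least once.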

Each number is a percent effect as filed. The controls that fix the scale are not given in the record; negative values are as filed. This is an unselected part of the compounds tested.

SMILES	Percent Effect
CC1c2cc(F)ccc2CCN1CCCS(=O)(=O)C(C)C (centres undefined)	-0.06242%
Cc1cc(C)cc(OCC(=O)N2CCCC2)c1	-19.28%
CNC(=O)c1sccc1N(C)S(=O)(=O)c1ccc(Cl)cc1	-7.646%
Cc1noc(C)c1CNC(=O)N1Cc2ccccc2N(C)CC1C (centres undefined)	5.128%
COc1cc(OC)cc(C(=O)NCC(c2cccn2C)N2CCCC2)c1 (centres undefined)	-2.695%
Cc1nc(CN2Cc3nccn3CC(COCC3CC3)C2)cs1.O=C(O)C(F)(F)F (centres undefined)	1.264%
O=C(O)C(F)(F)F.[H][C@@]12COC[C@]1(CNC(=O)c1ccsc1)CN(Cc1cnn(C)c1)C2	-9.725%
CCCNc1cc(-c2c[nH]nc2C2CCN(C(=O)C3CCC3)C2)ccn1 (centres undefined)	94.14%
COc1ncccc1C(=O)N1CCC2(CC1)CC(OC)CO2.O=C(O)C(F)(F)F (centres undefined)	-20.84%
COCCCC1CCCCN1S(=O)(=O)c1cccc(C#N)c1 (centres undefined)	-12.45%
Cc1ccc2c(n1)N(CCn1cccn1)CCN(CC1CC1)C2.O=C(O)C(F)(F)F.O=C(O)C(F)(F)F	13.67%
CCSCC(C)NCc1nc(-c2cccnc2)no1 (centres undefined)	-20.59%
CCN1C(=O)CC[C@]12CC[C@@H](NC(=O)NCc1cccnc1)CC2.O=C(O)C(F)(F)F	-0.5557%
CC(C)N1CCCC1c1cc(CO)[nH]n1.O=CO (centres undefined)	-7.46%
CCn1cc(CN2CCCn3nc(CNC(=O)C4CCC4)cc3C2)cn1	12.55%
Cc1nn(C)c(C)c1NC(=O)CCn1ncc2c(C)cccc21	9.577%
NC(=O)C(Cc1ccccc1)NS(=O)(=O)Cc1ccccc1F (centres undefined)	-5.639%
O=C(CN1CCSC2(CCCCC2)C1)NCC(F)(F)F	3.845%
Cc1cc(C)nc(Nc2cc(C)nc(C3CCN(C(C)C)C3)n2)n1 (centres undefined)	10.88%
Cc1n[nH]c(C)c1CC(=O)N1CCCN(C)C2(CCN(C)CC2)C1	6.151%
Cc1cc(CN(C)Cc2ncc(-c3cccs3)o2)no1	-1.705%
CCC(=O)N1CCC(c2nnc(Cn3cncn3)n2C2CC2)CC1	-1.919%
Cl.Cl.NCC(=O)N1CCCC(c2cncc(Nc3ncccn3)n2)C1 (centres undefined)	-1.345%
Cc1[nH]nc2ncc(C(=O)N3CCN(C(C)(C)C)CC3)cc12	-2.53%
Cc1cccc2c1C(=O)NC1(CCOCC1)N2	-35.46%
COc1ccc(S(=O)(=O)C(F)(F)F)cc1NC(=O)CSC	-4.607%
[H][C@@]12COC[C@@H](CC(=O)N3CCN(C)CC3)[C@]1([H])CN(c1ccncn1)C2	-6.254%
Cc1cc(NC(=O)CN2CCc3cnc(C(C)C)nc3C2)on1	2.894%
COCC(=O)N1CCN(Cc2csc(-c3ncccn3)n2)CC1	2.674%
O=C(O)C(F)(F)F.O=C(O)C(F)(F)F.O=C1N(c2cncnc2)CCC12CCCN(Cc1cccnc1)C2 (centres undefined)	-9.706%
Cc1nccc(N2CCCC(c3nnc(Cn4ccnc4C)n3C)C2)n1 (centres undefined)	11.34%
CC(C)[C@@H]1CN(C(=O)CN(C)Cc2ccc(F)cc2)C[C@H]1C(=O)O	-2.326%
COc1c(C2CCCN2C(=O)c2ccc(C(N)=O)s2)c(C)nn1C (centres undefined)	8.032%
CC(C)N1CCCC(N2CCOC3(CCCC3)C2)C1=O (centres undefined)	-6.283%
Cc1cnc2[nH]c(C(F)(F)F)c(CN3CCOCC3)c2c1	-4.577%
COc1ccc(Oc2ncccc2F)cc1CN1CCCC1	-7.525%
CC(C)n1c2ccccc2c2c1cc(C(=O)NC1CC1)n2C(=O)N(C)C	-50.91%
Cc1ccccc1CCCN(Cc1ccccn1)S(C)(=O)=O	2.663%
O=C(O)C(F)(F)F.[H][C@@]12CN(C(=O)c3ccco3)C[C@]1([H])CN(c1ccccn1)C2	0.03659%
Cc1nn(C)cc1C(=O)N1CCCC(n2cncn2)C1 (centres undefined)	4.349%
[H][C@]12CCN(C(=O)c3ccncc3)CC[C@@]1([H])S(=O)(=O)N(CC(=O)N(C)C)C2	-0.3386%
c1ccc(-c2nnc3n2CCN(c2nc(C4CC4)ns2)C3)cc1	1.661%
CC(C)=CCCC(C)CN1CCC(n2cc(C(=O)NCCO)nn2)CC1 (centres undefined)	6.455%
CC(c1ccco1)N(C(=O)c1cc2c([nH]c1=O)CCCC2=O)C1CC1 (centres undefined)	0.05294%
CN(C)CCn1ccnc1C1CCN(C(=O)CCc2cccnc2)CC1	2.76%
CCC(=O)NC1CCCN(C(=O)Nc2cccc(COC(C)C)c2)C1 (centres undefined)	5.615%
CN(Cc1cn2c(n1)CN(C(N)=O)CC2)Cc1ccco1	4.176%
Cc1ccoc1CNC(C)c1nnc2n1CCCC2 (centres undefined)	4.099%
Br.Cc1cc(C)nc(NCCC(=O)NCCn2ccnc2C)n1	-4.898%
O=C(NCc1nc(C2CCCCC2)no1)C1CC(=O)N(C2CCCC2)C1 (centres undefined)	-0.07905%
C=Cc1cccc(CN2CCCn3nc(CNS(C)(=O)=O)cc3C2)c1	5.172%
CN1C(=O)CCN(C(=O)C2CC=CC2)c2ccccc21	-4.615%
Cc1nn(C)c2nc(NCCCN3CCCC(C(N)=O)C3)sc12 (centres undefined)	4.447%
Cc1nnc(CNCC2(O)CCCN(Cc3ccc(F)c(F)c3)C2=O)[nH]1 (centres undefined)	2.73%
CCOc1ccc(OC2CCCN(c3cnn(C)c3)C2=O)cc1 (centres undefined)	8.21%
Cc1nc(C2CCCN2C(=O)c2cc3c(s2)CCC3)no1 (centres undefined)	0.2234%
COc1cccc(CN2CCCC(c3cc(C(N)=O)[nH]n3)C2)c1 (centres undefined)	-10.17%
Cn1cc(CN2CC[C@H](O)[C@@H]2Cc2ccccc2)cn1.O=C(O)C(F)(F)F	-19.06%
O=C(C1CCCC1)N1CCOC(c2nc(-c3ncccn3)no2)C1 (centres undefined)	-15.03%
CC1=C(CCN2C[C@H](O)[C@@H](N3CCOCC3)C2)C(C)(C)CCC1	-5.369%
COc1cccc(CN2CCc3nc(C(=O)NCC(C)C)sc3CC2)c1.O=C(O)C(F)(F)F	-7.29%
CCN(C(=O)CCCOc1ccccc1F)c1ccncc1	-2.162%
CNc1nc(CNC(=O)Nc2cc(Cl)ccc2F)cs1	-9.438%
Cc1ccc(C)c(OCCN2CCC(N3CCNC3=O)CC2)c1	6.031%
COCC1c2c(cnn2C)CCN1C(=O)c1cccn1C.O=C(O)C(F)(F)F (centres undefined)	3.89%
CC1CCCCN1CCNC(=O)c1ccn(-c2cccc(F)c2)n1 (centres undefined)	8.832%
CCNC(=O)NCCCn1nc2ccccn2c1=O	2.812%

The last 6 entries again:

- CCN(C(=O)CCCOc1ccccc1F)c1ccncc1 | -2.162%
- CNc1nc(CNC(=O)Nc2cc(Cl)ccc2F)cs1 | -9.438%
- Cc1ccc(C)c(OCCN2CCC(N3CCNC3=O)CC2)c1 | 6.031%
- COCC1c2c(cnn2C)CCN1C(=O)c1cccn1C.O=C(O)C(F)(F)F (centres undefined) | 3.89%
- CC1CCCCN1CCNC(=O)c1ccn(-c2cccc(F)c2)n1 (centres undefined) | 8.832%
- CCNC(=O)NCCCn1nc2ccccn2c1=O | 2.812%